Data as given in PubChem BioAssay AID602196 (INSERM, 2012).
In all, the deposit lists about 23,000 reagents; shown is an unselected part. 455 of them (2%) were called active. 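Active includes both protection and sensitisation; some change values fall well beyond the stated -50 to +50 range.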 Further read-outs or replicates are left out here. The record does not give: the amount of reagent.

Purpose: 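Modifiers of cisplatin sensitivity in A549 cells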
System: human A549 lung cancer cells
Reagents: siRNA pair against human genes
Timing: 48 h transfection before cisplatin; time from cisplatin to read-out not stated
Conditions: cisplatin at a dose killing half of control-siRNA cells; exact dose and duration not given
Measurement: 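Shift in cisplatin death relative to control siRNA, from -50 (all cells die) to +50 (no cells die); siRNAs harmful on their own scored 0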
Direction: two-siRNA summed score (-2 to +2): higher = both siRNAs protect from cisplatin killing; -2 means both sensitise; mean protection from cisplatin (shift in death): higher = protection from cisplatin killing
Call rule: 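Each siRNA scores 0 if harmful alone by LDH or WST-1, otherwise +1 if it reduces and -1 if it increases cisplatin killing; a gene is active when both siRNAs agree (sum +2 or -2)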
Meaning of the calls: active = both siRNAs shift cisplatin killing the same way; inactive = no consistent shift, or siRNA harmful alone

SEMG1 (GeneID 6406): two-siRNA summed score (-2 to +2) = 1; mean protection from cisplatin (shift in death) (%) = 4.3; Call = inactive
RSRC2 (GeneID 65117): two-siRNA summed score (-2 to +2) = 0; mean protection from cisplatin (shift in death) (%) = 0.1; Call = inactive
LOC440094: two-siRNA summed score (-2 to +2) = 0; mean protection from cisplatin (shift in death) (%) = 15.8; Call = inactive
GPR45 (GeneID 11250): two-siRNA summed score (-2 to +2) = -1; mean protection from cisplatin (shift in death) (%) = 1.9; Call = inactive
NINL (GeneID 22981): two-siRNA summed score (-2 to +2) = 1; mean protection from cisplatin (shift in death) (%) = 4.5; Call = inactive
MPHOSPH8 (GeneID 54737): two-siRNA summed score (-2 to +2) = 0; mean protection from cisplatin (shift in death) (%) = 0.2; Call = inactive
WNT7B (GeneID 7477): two-siRNA summed score (-2 to +2) = 0; mean protection from cisplatin (shift in death) (%) = -4.5; Call = inactive
DESI1 (GeneID 27351): two-siRNA summed score (-2 to +2) = 1; mean protection from cisplatin (shift in death) (%) = 11.7; Call = inactive
ANKRD17 (GeneID 26057): two-siRNA summed score (-2 to +2) = 0; mean protection from cisplatin (shift in death) (%) = 13.6; Call = inactive
WRN (GeneID 7486): two-siRNA summed score (-2 to +2) = 0; mean protection from cisplatin (shift in death) (%) = -8.1; Call = inactive
GALNT11 (GeneID 63917): two-siRNA summed score (-2 to +2) = 0; mean protection from cisplatin (shift in death) (%) = 7; Call = inactive
LINC03034 (GeneID 283710): two-siRNA summed score (-2 to +2) = 0; mean protection from cisplatin (shift in death) (%) = 6.6; Call = inactive
